Measured values published in patent US9694087B2, “Development of novel macromolecule transduction domain with improved cell permeability and method for using same” (priority 2011, dated 2017).
Not every detail of the peptide structures is certain; ends, links or a residue may be inferred. Where a SMILES comes first, the peptide text is derived from it.

Tested on: ICR mice
Test: In vivo epithelial tissue (skin) permeability by confocal microscopy
Set-up: species or system mouse
Settings: FITC-labelled, applied on gauze to back skin, 1, 3, 6 and 12 hours; FIG. 12
Experimental: After 1, 3, 6, and 12 hours, the mice were sacrificed by cervical dislocation, and skin at the drug-applied parts was extracted. Afterward, the skin was put in 4% paraformaldehyde for 24 hours to fix a tissue and then prepared in a 6 μm cryosection to form a slide. […] The stained tissue was washed again three times with PBS buffer for 10 minutes, fixed with mounting media, and observed by confocal microscopy.

SMILES: CSCC[C@H](N)C(=O)N[C@@H](CCCNC(=N)N)C(=O)N[C@@H](C)C(=O)N[C@@H](C)C(=O)N[C@@H](C)C(=O)N1CCC[C@H]1C(=O)N[C@@H](C)C(=O)N[C@H](C(=O)N[C@@H](C)C(=O)N[C@@H](C)C(=O)O)C(C)C [M1067] (H-MRAAAPAVAA-OH)
- epithelial permeation: epithelial permeation into a deep tissue occurred according to applied time
